# Data reported in article PMC12581942.
# Sequences of proteins named here, by UniProt entry; tags and fusion partners are left off.
# UniProt E9JUM2, entry or part of it: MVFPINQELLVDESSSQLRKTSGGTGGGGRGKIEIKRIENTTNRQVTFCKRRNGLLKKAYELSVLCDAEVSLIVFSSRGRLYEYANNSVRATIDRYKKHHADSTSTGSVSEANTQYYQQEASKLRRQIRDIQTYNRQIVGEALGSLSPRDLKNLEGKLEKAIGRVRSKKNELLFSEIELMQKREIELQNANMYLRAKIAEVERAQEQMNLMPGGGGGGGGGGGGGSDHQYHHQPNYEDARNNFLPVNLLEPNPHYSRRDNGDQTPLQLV
# Negatives hold for the conditions tested.
# Target: SlTAGL1-His (UniProt E9JUM2)
# Assay: EMSA
# Conditions: + SlEBF3-GST (full length, E. coli), TAGL1 binding abolished; not given; Beyotime EMSA/Gel-Shift kit and Thermo LightShift Chemiluminescent EMSA kit; recombinant protein; residues 1-269; protein details: His (pET28a); label: biotin 3'
sequence,measurement,value
GAATTGAGCACTTGGCTTTTGTATATAGCTTCTATGTGTACCAAAATT (double strand) [SlPSY1 promoter probe],binding result,no binding
